# Data from PubChem BioAssay AID2685 (National Center for Advancing Translational Sciences (NCATS), 2010).
# The other results are listed elsewhere or left out. These are further read-outs of the screen, such as a control signal, another cell line or another target. No call is given for them. Compounds called inactive in the main read-out are mostly missing here. Words in brackets tell the shape of the fitted curve; partial curves, single points and poor fits give uncertain potencies.
# Assay: qHTS Assay for Lipid Storage Modulators in Drosophila S3 Cells;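 on cell number change: cells counted by Cell Tracker Red CMTPX staining in the red channel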
# Details: BODIPY lipid droplet fluorescence, 18-24 h; for cell number change: measured here: cell count max response, cells fed with added oleic acid
# Method in brief: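 Drosophila S3 cells got compounds at several concentrations plus oleic acid (400 uM solution). Laser-scanning cytometry with 488 nm excitation read lipid droplets at 500-530 nm and cells at 575-640 nm. Percent activity was relative to 20 uM Triacsin C.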
# [1] = measured here: lipid fluorescence (Fed channel) AC50, cells fed with added oleic acid
# [2] = measured here: cell number channel AC50, cells fed with added oleic acid
smiles,measurement,setting,value
O=C(CSc1nc(=O)n2ccccc2n1)Nc1ccc2c(c1)OCCO2,cell number change,,-16.8%
same,AC50,[1],"2.06 µM [falling, partial curve]"
CCN1CCN(S(=O)(=O)Cc2ccccc2)CC1,cell number change,,-90.5%
same,AC50,[2],"29.1 µM [falling, single point]"
same,AC50,[1],"29.1 µM [falling, single point]"
Cc1ccccc1C(=O)Nc1ccc(S(=O)(=O)N2CC(C)OC(C)C2)cc1 (centres undefined),cell number change,,-1.8%
same,AC50,[1],"29.1 µM [falling, single point]"
CCN(CC(=O)NCc1ccc(Cl)cc1)C(=O)/C=C/c1cc(OC)c(OC)c(OC)c1,cell number change,,-3.97%
C/C(=N\NC(=S)Nc1cc(S(=O)(=O)N2CCOCC2)ccc1Cl)c1ccccc1F,cell number change,,13.3%
same,AC50,[2],"2.06 µM [rising, single point]"
CCOC(=O)N1CCN(C(=O)C2CC(=O)N(c3ccc(C)cc3)C2)CC1 (centres undefined),cell number change,,-3.41%
same,AC50,[2],"7.31 µM [falling, partial curve, poor fit]"
same,AC50,[1],"0.58 µM [falling, single point]"
CCCOc1cccc(C(=O)NCCNC(=O)c2ccc(C)nc2)c1,cell number change,,2.52%
Cn1cnnc1SCc1ccc(C(=O)N/N=C/c2cccs2)cc1,cell number change,,25.2%
same,AC50,[2],"0.0291 µM [rising, full curve, poor fit]"
same,AC50,[1],"4.11 µM [rising, partial curve, poor fit]"
COc1ccc([C@H]2CC(=O)C=C(c3cccc(CO)c3)C2)cc1,cell number change,,-11.8%
same,AC50,[1],"0.00411 µM [falling, full curve, poor fit]"
c1cc2c3c(cccc3c1)NC1(CCCCC1)N2,cell number change,,-19.3%
same,AC50,[1],"16.4 µM [falling, partial curve]"
CCOc1ccc(NC(=O)CCN2CCN(C)CC2)cc1,cell number change,,3.44%
CC/C(=C/c1sc2ccc(C)cc2[n+]1CCCS(=O)(=O)[O-])SC,cell number change,,-36.6%
same,AC50,[2],"32.6 µM [falling, single point]"
COc1ccc([C@H]2CC(=O)C=C(c3c(C)cc(C)cc3C)C2)cc1,AC50,[2],"2.91 µM [rising, single point]"
same,AC50,[1],"3.26 µM [falling, partial curve]"
Cc1ccc(CN2CCNC(=O)C2CC(=O)N(C)Cc2cnccn2)cc1 (centres undefined),cell number change,,-25.4%
c1coc(-c2ncc[nH]2)c1,cell number change,,11%
same,AC50,[1],"2.06 µM [rising, partial curve]"
Cc1cc(C)c(NC(=O)CNC(=O)[C@@H]2CCCN2C(=O)c2cccs2)c(C)c1,cell number change,,32.1%
same,AC50,[2],"14.6 µM [rising, partial curve, poor fit]"
same,AC50,[1],"29.1 µM [rising, single point]"
CC(=O)c1ccccc1OCC(=O)Nc1cccc(S(=O)(=O)N2CCCC2)c1,cell number change,,15.4%
same,AC50,[1],"8.2 µM [rising, partial curve]"
COc1ccc(CN(CCC(c2ccccc2)c2ccc(OC(C)C)cc2)C(=O)CCl)cc1OC (centres undefined),cell number change,,-32.1%
same,AC50,[2],"6.51 µM [falling, partial curve]"
same,AC50,[1],"9.2 µM [falling, partial curve, poor fit]"
O=C(c1cccc(C(F)(F)F)c1)N1CCOC12CCN(c1ncc(C(F)(F)F)cc1Cl)CC2,cell number change,,-24.4%
CC1CCN(Cc2ccc(NC(=O)C3CCN(c4nnc(-n5cccc5)s4)CC3)cc2)CC1,cell number change,,-20.2%
same,AC50,[1],"0.58 µM [falling, single point]"
COc1cccc(CCc2nnc(CCC(=O)NC(C)Cc3cccs3)o2)c1 (centres undefined),cell number change,,-17.4%
same,AC50,[1],"7.31 µM [falling, partial curve]"
O=C(NCC1CCCO1)c1ccc[nH]1 (centres undefined),cell number change,,-25.9%
same,AC50,[1],"3.66 µM [falling, full curve]"
CCSc1nsc(NC(=O)Nc2ccccc2OC)n1,cell number change,,-10.5%
same,AC50,[1],"29.1 µM [falling, single point]"
Cc1nc(N2CCN(C(=O)c3ccc(Cl)cc3)CC2)c(C#N)c2c1COC(C)(C)C2,cell number change,,-11.1%
same,AC50,[1],"18.4 µM [rising, partial curve]"
S=c1[nH]nc(-c2ccc(Cl)cc2)n1/N=C/c1cccs1,cell number change,,-30.6%
same,AC50,[2],"20.6 µM [falling, partial curve, poor fit]"
same,AC50,[1],"29.1 µM [falling, single point]"
COc1ccc(C(=O)c2c[nH]c(C(=O)NCc3cccs3)c2)cc1,cell number change,,12.3%
COn1c(-c2ccccc2)nc2c1CCc1nonc1-2,cell number change,,10.5%
O=C1OCCC1Sc1nnc(-c2cccs2)n1Cc1ccccc1 (centres undefined),cell number change,,7.41%
O=C(NCc1ccccn1)NC12CC3CC(CC(C3)C1)C2,AC50,[1],"0.461 µM [falling, single point]"
COc1ccc(CCN2CNc3c(c(=O)n(C)c(=O)n3C)C2)cc1OC,cell number change,,2.28%
Cc1oc2nc(SCC(=O)Nc3ccc(S(N)(=O)=O)cc3)nc(NC(=O)c3ccccc3)c2c1C,cell number change,,-82.2%
same,AC50,[1],"29.1 µM [falling, single point]"
Cc1cc(S(=O)(=O)NCc2ccccc2)ccc1OCC(=O)NCc1ccccn1,AC50,[1],"7.31 µM [falling, partial curve]"
CCCN(CC(=O)NC(=O)NC1CCCCC1)CC(=O)Nc1cc(Cl)ccc1Cl,cell number change,,-42.9%
same,AC50,[2],"32.6 µM [falling, partial curve]"
same,AC50,[1],"20.6 µM [falling, partial curve, poor fit]"
CCCn1c(CNC(=O)Cc2ccccc2)nc2ccccc21,AC50,[1],"0.116 µM [falling, full curve, poor fit]"
Cc1ccc(N2CC(C(=O)Nc3ccc(N4CCOCC4)cc3)CC2=O)cc1C (centres undefined),cell number change,,-4.2%
same,AC50,[1],"0.184 µM [rising, partial curve, poor fit]"
CCN(Cc1ccccc1)C(=O)CC(=O)N(CC)Cc1ccccc1,cell number change,,-10.3%
same,AC50,[1],"29.1 µM [rising, single point]"
Cc1cccc(N2CCN(c3nc(C)cc(C)c3C#N)CC2C)c1 (centres undefined),cell number change,,-10.8%
CCC(CC)C(=O)Nc1cccc(C(=O)N2CCCCCC2)c1,cell number change,,-6.83%
CCOc1ccc(C(=O)NCC(=O)N2CCN(c3ccccc3O)CC2)cc1,cell number change,,-14.3%
CC1CCN(C(=O)/C(=C/c2ccccc2Cl)c2ccccc2)CC1,cell number change,,-31.8%
same,AC50,[2],"4.61 µM [falling, full curve, poor fit]"
same,AC50,[1],"6.51 µM [falling, single point]"
COc1ccc(-c2c(-c3ccccc3OC)sc3ccccc23)cc1OC,cell number change,,21.4%
COc1ccc(CNC(=O)COC(=O)c2n[nH]c3ccccc23)cc1OC,cell number change,,-16.5%
same,AC50,[1],"14.6 µM [falling, single point]"
COCc1nnc(NC(=O)C2CC(=O)N(C3CCCCC3)C2)s1 (centres undefined),cell number change,,13.4%
same,AC50,[1],"29.1 µM [rising, single point]"
Cc1cc(SCC(=O)Nc2ccccc2C)nc(C)n1,cell number change,,58.4%
same,AC50,[2],"16.4 µM [rising, single point]"
Cc1ccc(S(=O)(=O)Nc2nc3ccccc3nc2N2CCc3ccccc3C2)cc1,cell number change,,-41.1%
same,AC50,[2],"11.6 µM [falling, partial curve, poor fit]"
same,AC50,[1],"6.51 µM [falling, partial curve]"
CC(=O)Nc1ccc(OCC(O)Cn2c(C)nc3ccccc32)cc1 (centres undefined),cell number change,,-38.9%
same,AC50,[2],"29.1 µM [falling, single point]"
same,AC50,[1],"29.1 µM [falling, single point]"
CCN1CCN(CCCNC(=O)CNC(=O)c2nn(-c3ccc(OC)cc3OC)c(=O)c3ccccc23)CC1,cell number change,,21.4%
same,AC50,[1],"29.1 µM [rising, single point]"
CCCc1cc(C(=O)Nc2cc(C)on2)no1,cell number change,,-7.44%
same,AC50,[1],"8.2 µM [falling, partial curve, poor fit]"
O=C(CCNS(=O)(=O)c1ccccc1)N1CCC(Cc2ccccc2)CC1,cell number change,,9.25%
O=C(c1ccc2[nH]c3c(c2c1)CCCC3)N1CCN(c2ccc(F)cc2)CC1,cell number change,,0.999%
same,AC50,[1],"3.26 µM [rising, single point]"
Cc1ccc(-c2nc(COC(=O)C3=NN(c4ccccc4)C(=O)CC3)cs2)cc1,cell number change,,-1.68%
same,AC50,[1],"14.6 µM [rising, partial curve]"
CCOCCCNC(=S)Nc1ccc(S(N)(=O)=O)cc1,cell number change,,-0.705%
same,AC50,[1],"3.26 µM [rising, single point]"
O=C(COC(=O)c1cccc(S(=O)(=O)NCc2ccccc2)c1)NCC1CCCO1 (centres undefined),AC50,[1],"6.51 µM [rising, partial curve, poor fit]"
O=C(NCc1ccco1)C1CC(=O)N(c2cccc(Cl)c2)C1 (centres undefined),cell number change,,-7.89%
Cc1ccccc1N1CC(C(=O)Nc2ccc(S(=O)(=O)N3CCOCC3)cc2)CC1=O (centres undefined),cell number change,,-7.69%
COc1ccc(S(=O)(=O)N2CCCCCC2)cc1C(=O)N(C)Cc1ccc(C(C)(C)C)cc1,cell number change,,-24.4%
same,AC50,[1],"7.31 µM [falling, partial curve]"
Cc1ccc(N(C(=O)CNC(=O)c2ccco2)C(C(=O)NC2CCCCC2)c2ccncc2)cc1F (centres undefined),cell number change,,9.57%
same,AC50,[1],"6.51 µM [rising, single point]"
COCc1cc(=O)oc2cc(NC(=O)c3ccc(C(C)(C)C)cc3)ccc12,cell number change,,-20.8%
COC(=O)Cc1ccc(NC(=S)NCCSc2ccc(C)cc2)cc1,cell number change,,-27.4%
same,AC50,[2],"0.92 µM [rising, full curve, poor fit]"
COc1ccc(N2CCN(C(=O)CCNS(=O)(=O)c3ccccc3)CC2)cc1,cell number change,,35.2%
O=C(NC(CC(=O)N1CCN(c2ccc([N+](=O)[O-])cc2)CC1)c1ccccc1)c1ccccc1Cl (centres undefined),cell number change,,-5.11%
same,AC50,[1],"0.103 µM [rising, full curve, poor fit]"
COCCCN(C(=O)c1cc(Cl)nc2ccccc12)c1c(N)n(Cc2ccccc2)c(=O)[nH]c1=O,cell number change,,6.83%
same,AC50,[1],"6.51 µM [rising, single point]"
Cc1nc2ccccc2c(=O)n1/N=C/c1ccc(O)c(O)c1O,cell number change,,46.8%
same,AC50,[2],"29.1 µM [rising, single point]"
